Entries after “also recorded” stand apart in the source; their conditions may differ. Some of these results come from one statement about several compounds together.
How the values were obtained:
[1] = system: tumor cells (A549, MCF7); test: Growth HTS, tumor cells compared with endothelial cells; type: cell-based, human; details: 1 μM, PAE, BEC
[2] = system: endothelial cells; test: Primary screening: cell-based growth HTS and tube formation HTS (bioactivity class); details: 1 μM
[3] = system: endothelial cells; test: Tube formation HTS; type: cell-based; details: 1 μM
[4] = system: endothelial cells (PAE, BEC); test: Growth HTS, fluorescent endothelial cells; type: cell-based, porcine; human; details: 1 μM

| Molecule | growth inhibitory activity in tumor cells vs endothelial cells [1] | tube formation inhibition [3] | also measured |
| --- | --- | --- | --- |
| O=C(c1no[n+]([O-])c1C(=O)c1csc2ccccc12)c1csc2ccccc12 [Compound 68, [4-(1-benzothiophene-3-carbonyl)-2-oxido-1,2,5-oxadiazol-2-ium-3-yl]-(1-benzothiophen-3-yl)methanone] | inhibit the growth of both endothelial cells and tumor cells; also recorded: inhibitory activity in both tumor cells and endothelial cells |  | type of inhibition (endothelial cell growth and/or tube formation) [2]: both endothelial cell growth and tube formation inhibitors |
| CC(C)(C)c1c2c(c(C(C)(C)C)c3c1OCN(Cc1ccccc1)C3)OCN(Cc1ccccc1)C2 [Compound 51, 3,8-dibenzyl-5,10-ditert-butyl-2,4,7,9-tetrahydro-[1,3]oxazino[6,5-g][1,3]benzoxazine] | inhibit the growth of both endothelial cells and tumor cells | tube formation inhibitors |  |
| O=C1c2ccccc2NC(c2cc(Cl)cc(Cl)c2O)N1CCc1ccccn1 (stereo not shown) [Compound 53, 2-(3,5-dichloro-2-hydroxyphenyl)-3-(2-pyridin-2-ylethyl)-1,2-dihydroquinazolin-4-one] | inhibit the growth of both endothelial cells and tumor cells | tube formation inhibitors |  |
| COC(=O)c1ccc(CCc2cc(O)ccc2O)cc1 [Compound 47, methyl 4-[2-(2,5-dihydroxyphenyl)ethyl]benzoate] | inhibit the growth of both endothelial cells and tumor cells | tube formation inhibitors |  |
| S=C1SCN(C2CCCCCCCCCCC2)CN1C1CCCCCCCCCCC1 [Compound 52, 3,5-di(cyclododecyl)-1,3,5-thiadiazinane-2-thione] | inhibit the growth of both endothelial cells and tumor cells | tube formation inhibitors |  |
| CCC(=O)OCN1C(=O)C=CC1=O [Compound 39, (2,5-dioxopyrrol-1-yl)methyl propanoate] | inhibit the growth of both endothelial cells and tumor cells | tube formation inhibitors |  |
| NC(=O)SCC(=O)Nc1ccc2ncccc2c1 [Compound 45, S-[2-oxo-2-(quinolin-6-ylamino)ethyl] carbamothioate] | inhibit the growth of both endothelial cells and tumor cells | tube formation inhibitors |  |
| CC1(C)[C@@H]2CC[C@]1(C)[C@H](OC(=O)CSC#N)C2 [Compound 42, [(1S,4R,6R)-1,7,7-trimethyl-6-bicyclo[2.2.1]heptanyl]2-thiocyanatoacetate] | inhibit the growth of both endothelial cells and tumor cells | tube formation inhibitors |  |
| CS(=O)(=O)c1ccc(/C=N/NC(N)=S)cc1 [Compound 43, [(E)-(4-methylsulfonylphenyl)methylideneamino] thiourea] | inhibit the growth of both endothelial cells and tumor cells | tube formation inhibitors |  |
| OC(c1cc(-c2ccccc2)nc2c1ccc1ccccc12)C1CCCCN1 (stereo not shown) [Compound 66, (2-phenylbenzo[h]quinolin-4-yl)-piperidin-2-ylmethanol] | inhibit the growth of both endothelial cells and tumor cells; also recorded: inhibitory activity in both tumor cells and endothelial cells |  | type of inhibition (endothelial cell growth and/or tube formation) [2]: both endothelial cell growth and tube formation inhibitors |
| COc1ccc(-c2csc3c2-n2cccc2C3=O)cc1 [Compound 63, 3-(4-methoxyphenyl)thieno[2,3-b]pyrrolizin-8-one] | inhibit the growth of both endothelial cells and tumor cells; also recorded: inhibitory activity in both tumor cells and endothelial cells |  | type of inhibition (endothelial cell growth and/or tube formation) ([2]; listed as compound 63): both endothelial cell growth and tube formation inhibitors |
| CC1(C)CC(Nc2ccc(Nc3ccccc3)cc2)CC(C)(C)N1 [Compound 48, 4-N-phenyl-1-N-(2,2,6,6-tetramethylpiperidin-4-yl)benzene-1,4-diamine] | inhibit the growth of both endothelial cells and tumor cells | tube formation inhibitors |  |
| O=C(O)C1CCCN1Cc1ccc2c(c1)OCO2 (stereo not shown) [Compound 46, 1-(1,3-benzodioxol-5-ylmethyl)pyrrolidine-2-carboxylic acid] | inhibit the growth of both endothelial cells and tumor cells | tube formation inhibitors |  |
| CC(C)(C)c1cc(O)ccc1O [Compound 38, 2-tert-butylbenzene-1,4-diol] | inhibit the growth of both endothelial cells and tumor cells | tube formation inhibitors |  |
| COc1ccc(NCc2c(O)ccc3ccccc23)cc1 [Compound 44, 1-[(4-methoxyanilino)methyl]naphthalen-2-ol] | inhibit the growth of both endothelial cells and tumor cells | tube formation inhibitors |  |
| Cc1ccc(S(=O)(=O)OCC(=O)O)cc1 [Compound 41, 2-(4-methylphenyl)sulfonyloxyacetic acid] | inhibit the growth of both endothelial cells and tumor cells | tube formation inhibitors |  |
| bromocopper; (dipyridin-2- ylmethylideneamino)- [methylsulfanyl(sulfoniumylidene) methyl]azanide [Compound 70] | inhibit the growth of both endothelial cells and tumor cells; also recorded: inhibitory activity in both tumor cells and endothelial cells |  | type of inhibition (endothelial cell growth and/or tube formation) [2]: both endothelial cell growth and tube formation inhibitors |
| Cc1cc(O)c(-c2cc(O)c(C)cc2O)cc1O [Compound 40, 2-(2,5-dihydroxy-4-methylphenyl)-5-methylbenzene-1,4-diol] | inhibit the growth of both endothelial cells and tumor cells | tube formation inhibitors |  |
| CN(C)CCC(=O)[C@@]1(O)CC[C@H]2[C@@H]3CC=C4C[C@@H](O)CC[C@]4(C)[C@H]3CC[C@@]21C.Cl [Compound 27, 1-[(3S,8R,9S,10R,13S,14S,17R)-3,17-dihydroxy-10,13-dimethyl-1,2,3,4,7,8,9,11,12,14,15,16-dodecahydrocyclopenta[a]phenanthren-17-yl]-3-(dimethylamino)propan-1-one chloride] | inhibit the growth of both endothelial cells and tumor cells; also recorded: inhibitory activity in both tumor cells and endothelial cells |  | endothelial cell growth inhibition [4]: endothelial cell growth inhibitors |
| O=C(O)c1c(Br)c(Br)c(Br)c(Br)c1C1c2ccc(O)cc2Oc2cc(O)ccc21 [Compound 62, 2,3,4,5-tetrabromo-6-(3,6-dihydroxy-9H-xanthen-9-yl)benzoic acid] | inhibit the growth of both endothelial cells and tumor cells | tube formation inhibitors |  |
| COc1cccc2c(O)c3c(c(N)c12)C(=O)C1=C(C[C@@](O)(C(C)=O)C[C@@H]1OC1CC(N)C(O)C(C)O1)C3=O.Cl (stereo partly drawn) [Compound 35, (1S,3S)-3-acetyl-11-amino-1-(4-amino-5-hydroxy-6-methyloxan-2-yl)oxy-3,6-dihydroxy-10-methoxy-2,4-dihydro-1H-tetracene-5,12-dione hydrochloride] |  |  | growth inhibitory activity in tumor cells vs endothelial cells ([1]; hydrochloride): inhibit the growth of both endothelial cells and tumor cells; also recorded: inhibitory activity in both tumor cells and endothelial cells; endothelial cell growth inhibition [4]: endothelial cell growth inhibitors |
| Cc1c(Cl)cc(C(C)(C)C)c(O)c1Cc1c(C)c(Cl)cc(C(C)(C)C)c1O [Compound 17, 6-tert-butyl-2-[(3-tert-butyl-5-chloro-2-hydroxy-6-methylphenyl)methyl]-4-chloro-3-methylphenol] | inhibit the growth of both endothelial cells and tumor cells; also recorded: inhibitory activity in both tumor cells and endothelial cells |  | endothelial cell growth inhibition [4]: endothelial cell growth inhibitors |
| Cl.N=C1C=CC(=C(c2ccc(N)cc2)c2ccc(N)cc2)C=C1 [Compound 8, [4-[(4-aminophenyl)-(4-iminocyclohexa-2,5-dien-1-ylidene)methyl]phenyl]azanium chloride] | inhibit the growth of both endothelial cells and tumor cells; also recorded: inhibitory activity in both tumor cells and endothelial cells |  | endothelial cell growth inhibition [4]: endothelial cell growth inhibitors |
| CC1(C)N=C(N)N=C(N)N1CCCCc1ccccc1.Cl [Compound 11, 6,6-dimethyl-1-(4-phenylbutyl)-1,3,5-triazine-2,4-diamine hydrochloride] |  |  | growth inhibitory activity in tumor cells vs endothelial cells ([1]; hydrochloride): inhibit the growth of both endothelial cells and tumor cells; also recorded: inhibitory activity in both tumor cells and endothelial cells; endothelial cell growth inhibition [4]: endothelial cell growth inhibitors |
| Cc1cc(Cc2cc(C)cc(C(C)(C)C)c2O)c(O)c(Cc2cc(C)cc(C(C)(C)C)c2O)c1 [Compound 33, 2-tert-butyl-6-[[3-[(3-tert-butyl-2-hydroxy-5-methylphenyl)methyl]-2-hydroxy-5-methylphenyl]methyl]-4-methylphenol] | inhibit the growth of both endothelial cells and tumor cells; also recorded: inhibitory activity in both tumor cells and endothelial cells |  | endothelial cell growth inhibition [4]: endothelial cell growth inhibitors |
| C(=C\c1ccccc1)/C=N/c1ccc2c(c1)Cc1ccccc1-2 [Compound 2, (E)-N-(9H-fluoren-2-yl)-3-phenylprop-2-en-1-imine] | inhibit the growth of both endothelial cells and tumor cells; also recorded: inhibitory activity in both tumor cells and endothelial cells |  | endothelial cell growth inhibition [4]: endothelial cell growth inhibitors |

Source: patent US9504729B2, “Antiangiogenic small molecules and methods of use” (The United States of America, as represented by the …, priority 2009, dated 2016)
